The target in the test is T1, HA tagged p73α (UniProt O15350).
T1 sequence (looked up): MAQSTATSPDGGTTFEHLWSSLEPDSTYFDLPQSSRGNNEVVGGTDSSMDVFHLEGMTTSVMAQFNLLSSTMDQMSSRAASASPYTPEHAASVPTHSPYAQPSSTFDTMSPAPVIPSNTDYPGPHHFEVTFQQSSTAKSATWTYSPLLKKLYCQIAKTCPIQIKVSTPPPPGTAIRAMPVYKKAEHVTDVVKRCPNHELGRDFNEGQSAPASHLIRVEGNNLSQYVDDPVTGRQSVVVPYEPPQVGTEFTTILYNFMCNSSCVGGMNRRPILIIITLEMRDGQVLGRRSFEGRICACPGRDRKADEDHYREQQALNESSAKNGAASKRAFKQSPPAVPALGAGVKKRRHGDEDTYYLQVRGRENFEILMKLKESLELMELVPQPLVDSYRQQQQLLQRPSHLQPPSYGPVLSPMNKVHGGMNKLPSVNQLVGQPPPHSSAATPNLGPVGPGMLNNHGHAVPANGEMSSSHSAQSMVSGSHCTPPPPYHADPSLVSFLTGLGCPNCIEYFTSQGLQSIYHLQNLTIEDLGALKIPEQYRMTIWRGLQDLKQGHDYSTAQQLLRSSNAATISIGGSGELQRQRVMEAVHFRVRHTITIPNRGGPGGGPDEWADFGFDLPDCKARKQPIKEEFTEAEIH
In words: no binding assay described in the example; the sentence is followed by literature citations.

Results are given in words; binding and its absence hold for the method and conditions named. Some results given as binding are weak or reduced against the parent protein; the word gives no strength. Where a sequence is shown, tags or fusion partners need not be part of it.

B1: p73DD (protein, UniProt O15350 327-636, looked up)
chain: KRAFKQSPPAVPALGAGVKKRRHGDEDTYYLQVRGRENFEILMKLKESLELMELVPQPLVDSYRQQQQLLQRPSHLQPPSYGPVLSPMNKVHGGMNKLPSVNQLVGQPPPHSSAATPNLGPVGPGMLNNHGHAVPANGEMSSSHSAQSMVSGSHCTPPPPYHADPSLVSFLTGLGCPNCIEYFTSQGLQSIYHLQNLTIEDLGALKIPEQYRMTIWRGLQDLKQGHDYSTAQQLLRSSNAATISIGGSGELQRQRVMEAVHFRVRHTITIPNRGGPGGGPDEWADFGFDLPDCKARKQPIKEEFTEAEIH
For the molecule B1, the binding result is listed as “binds”.

The record behind these values is patent US20050227918A1, “Method for assaying susceptibility to cancer therapy in a subject by assaying for tumors of P53” (priority 2004, published 2005).
